Numbered stars: 1 amine (or outer) side, 2 acyl side, 3 side chain; on linkers, the order of the positions; unused ones are H or OH. Bridge positions count the residues as written; N and C are the ends. Square brackets hold non-standard residues; d marks the D form. Ends that are not written are not given here. * marks the point of attachment. Hydrocinnamoyl(4-Me) = Cc1ccc(CCC(=O)*)cc1; Benzoyl(4-Ph) = O=C(c1ccc(-c2ccccc2)cc1)*; Phenylacetyl(4-Me) = Cc1ccc(CC(=O)*)cc1; NH(CH2)8CO = O=C(CCCCCCCCN[*:1])[*:2]; Myristoyl = CCCCCCCCCCCCCC(=O)*; d(pGlu) = O=C1CC[C@H](C(=O)O)N1; pGlu = O=C1CC[C@@H](C(=O)O)N1; X3 = O=C(/C=C/c1ccc(Cl)cc1)*; Lauroyl = CCCCCCCCCCCC(=O)*; X4 = O=C(c1cc2ccccc2[nH]1)*; X1 = O=C(CN1CCN(CCO)CC1)*; hCys = N[C@@H](CCS)C(=O)O; Octanoyl = CCCCCCCC(=O)*; X5 = O=C(/C=C/c1ccccc1)*; Aoc = NCCCCCCCC(=O)O; Ahp = NCCCCCCC(=O)O; Ahx = NCCCCCC(=O)O; Ava = NCCCCC(=O)O; βAla = NCCC(=O)O
Experiment: general procedure: Fmoc solid-phase peptide synthesis; Rink Amide MBHA resin (0.58 mmol/g or 0.78 mmol/g); Wang resin for C-terminal acids; DIC/HOBt
Conditions: whole synthesis; for purity (crude or final not stated) / final HPLC purity: analytical HPLC; for purity (crude or final not stated): scale of the general procedure 0.090 mmol

Substance | purity (crude or final not stated) | also measured
X1-[dC][dQ][dI][dW][dK][dQ][dK][dP][dD][dL][dC]-NH2 (disulfide 1-11; SMILES CC[C@@H](C)[C@H]1NC(=O)[C@@H](CCC(N)=O)NC(=O)[C@H](NC(=O)CN2CCN(CCO)CC2)CSSC[C@H](C(N)=O)NC(=O)[C@@H](CC(C)C)NC(=O)[C@@H](CC(=O)O)NC(=O)[C@H]2CCCN2C(=O)[C@@H](CCCCN)NC(=O)[C@@H](CCC(N)=O)NC(=O)[C@@H](CCCCN)NC(=O)[C@@H](Cc2c[nH]c3ccccc23)NC1=O) | 99% | –
X3-CKWIQC-NH2 (disulfide 1-6; SMILES CC[C@H](C)[C@@H]1NC(=O)[C@H](Cc2c[nH]c3ccccc23)NC(=O)[C@H](CCCCN)NC(=O)[C@@H](NC(=O)/C=C/c2ccc(Cl)cc2)CSSC[C@@H](C(N)=O)NC(=O)[C@H](CCC(N)=O)NC1=O) | 96% | –
X4-CKWIQC-NH2 (disulfide 1-6; SMILES CC[C@H](C)[C@@H]1NC(=O)[C@H](Cc2c[nH]c3ccccc23)NC(=O)[C@H](CCCCN)NC(=O)[C@@H](NC(=O)c2cc3ccccc3[nH]2)CSSC[C@@H](C(N)=O)NC(=O)[C@H](CCC(N)=O)NC1=O) | 96.2% | –
X5-CKWIQC-NH2 (disulfide 1-6; SMILES CC[C@H](C)[C@@H]1NC(=O)[C@H](Cc2c[nH]c3ccccc23)NC(=O)[C@H](CCCCN)NC(=O)[C@@H](NC(=O)/C=C/c2ccccc2)CSSC[C@@H](C(N)=O)NC(=O)[C@H](CCC(N)=O)NC1=O) | 95% | –
[Ahp]KWIQD-NH2 (lactam N-6; SMILES CC[C@H](C)[C@@H]1NC(=O)[C@H](Cc2c[nH]c3ccccc23)NC(=O)[C@H](CCCCN)NC(=O)CCCCCCNC(=O)C[C@@H](C(N)=O)NC(=O)[C@H](CCC(N)=O)NC1=O) | 93.9% | –
[Ahp]KWIQE-NH2 (lactam N-6; SMILES CC[C@H](C)[C@@H]1NC(=O)[C@H](Cc2c[nH]c3ccccc23)NC(=O)[C@H](CCCCN)NC(=O)CCCCCCNC(=O)CC[C@@H](C(N)=O)NC(=O)[C@H](CCC(N)=O)NC1=O) | 90% | –
[Ahx]KWIQD-NH2 (lactam N-6; SMILES CC[C@H](C)[C@@H]1NC(=O)[C@H](Cc2c[nH]c3ccccc23)NC(=O)[C@H](CCCCN)NC(=O)CCCCCNC(=O)C[C@@H](C(N)=O)NC(=O)[C@H](CCC(N)=O)NC1=O) | – | final HPLC purity (scale 0.09 mmol): greater than 77%; crude mass (scale 0.09 mmol): ˜65 mg; isolated mass (scale 0.09 mmol): 12.3 mg; isolated yield (scale 0.09 mmol): 17% yield
[Ahx]KWIQE-NH2 (lactam N-6; SMILES CC[C@H](C)[C@@H]1NC(=O)[C@H](Cc2c[nH]c3ccccc23)NC(=O)[C@H](CCCCN)NC(=O)CCCCCNC(=O)CC[C@@H](C(N)=O)NC(=O)[C@H](CCC(N)=O)NC1=O) | 94.4% | –
[Aoc]KWIQD-NH2 (lactam N-6; SMILES CC[C@H](C)[C@@H]1NC(=O)[C@H](Cc2c[nH]c3ccccc23)NC(=O)[C@H](CCCCN)NC(=O)CCCCCCCNC(=O)C[C@@H](C(N)=O)NC(=O)[C@H](CCC(N)=O)NC1=O) | 80.8% | –
[Aoc]KWIQE-NH2 (lactam N-6; SMILES CC[C@H](C)[C@@H]1NC(=O)[C@H](Cc2c[nH]c3ccccc23)NC(=O)[C@H](CCCCN)NC(=O)CCCCCCCNC(=O)CC[C@@H](C(N)=O)NC(=O)[C@H](CCC(N)=O)NC1=O) | 91.8% | –
[Ava]KWIQD-NH2 (lactam N-6; SMILES CC[C@H](C)[C@@H]1NC(=O)[C@H](Cc2c[nH]c3ccccc23)NC(=O)[C@H](CCCCN)NC(=O)CCCCNC(=O)C[C@@H](C(N)=O)NC(=O)[C@H](CCC(N)=O)NC1=O) | 91.4% | –
[Ava]KWIQE-NH2 (lactam N-6; SMILES CC[C@H](C)[C@@H]1NC(=O)[C@H](Cc2c[nH]c3ccccc23)NC(=O)[C@H](CCCCN)NC(=O)CCCCNC(=O)CC[C@@H](C(N)=O)NC(=O)[C@H](CCC(N)=O)NC1=O) | 95.4% | –
[Ava][dQ][dI][dW][dK][dD]-NH2 (lactam N-6; SMILES CC[C@@H](C)[C@H]1NC(=O)[C@@H](CCC(N)=O)NC(=O)CCCCNC(=O)C[C@H](C(N)=O)NC(=O)[C@@H](CCCCN)NC(=O)[C@@H](Cc2c[nH]c3ccccc23)NC1=O) | 99% | –
[NH(CH2)8CO]KWIQD-NH2 (lactam N-6; SMILES CC[C@H](C)[C@@H]1NC(=O)[C@H](Cc2c[nH]c3ccccc23)NC(=O)[C@H](CCCCN)NC(=O)CCCCCCCCNC(=O)C[C@@H](C(N)=O)NC(=O)[C@H](CCC(N)=O)NC1=O) | 96.4% | –
[NH(CH2)8CO]KWIQE-NH2 (lactam N-6; SMILES CC[C@H](C)[C@@H]1NC(=O)[C@H](Cc2c[nH]c3ccccc23)NC(=O)[C@H](CCCCN)NC(=O)CCCCCCCCNC(=O)CC[C@@H](C(N)=O)NC(=O)[C@H](CCC(N)=O)NC1=O) | 92% | –
[aminoPeg10-oxaglutaryl]2-c(D-Cys-D-Gln-D-Ile-D-Trp-D-Lys-D-Gln-D-Lys-D-Pro-D-Asp-D-Leu-D-Cys)-NH2 | 95% | –
[aminoPeg10-oxaglutaryl]-c(D-Cys-D-Gln-D-Ile-D-Trp-D-Lys-D-Gln-D-Lys-D-Pro-D-Asp-D-Leu-D-Cys)-NH2 | 95% | –
[d(pGlu)]CKWIQC-NH2 (disulfide 2-7; SMILES CC[C@H](C)[C@@H]1NC(=O)[C@H](Cc2c[nH]c3ccccc23)NC(=O)[C@H](CCCCN)NC(=O)[C@@H](NC(=O)[C@H]2CCC(=O)N2)CSSC[C@@H](C(N)=O)NC(=O)[C@H](CCC(N)=O)NC1=O) | 93.5% | –
[dK](Lauroyl)DCLDPKQKWIQC-NH2 (disulfide 3-13) | 93% | –

Substance | purity (crude or final not stated) | also measured
[dK](Myristoyl)[dD]CLDPKQKWIQC-NH2 (disulfide 3-13) | 85% | –
[dK](Octanoyl)[dD]CLDPKQKWIQC-NH2 (disulfide 3-13) | 92% | –
[pGlu]CKWIQC-NH2 (disulfide 2-7; SMILES CC[C@H](C)[C@@H]1NC(=O)[C@H](Cc2c[nH]c3ccccc23)NC(=O)[C@H](CCCCN)NC(=O)[C@@H](NC(=O)[C@@H]2CCC(=O)N2)CSSC[C@@H](C(N)=O)NC(=O)[C@H](CCC(N)=O)NC1=O) | 89.5% | –
[βAla]KWIQE-NH2 (lactam N-6; SMILES CC[C@H](C)[C@@H]1NC(=O)[C@H](Cc2c[nH]c3ccccc23)NC(=O)[C@H](CCCCN)NC(=O)CCNC(=O)CC[C@@H](C(N)=O)NC(=O)[C@H](CCC(N)=O)NC1=O) | 95.9% | –
[βAla]KWQD-NH2 (lactam N-5; SMILES NCCCC[C@@H]1NC(=O)CCNC(=O)C[C@@H](C(N)=O)NC(=O)[C@H](CCC(N)=O)NC(=O)[C@H](Cc2c[nH]c3ccccc23)NC1=O) | 99% | –
[βAla][dQ][dI][dW][dK][dD]-NH2 (lactam N-6; SMILES CC[C@@H](C)[C@H]1NC(=O)[C@@H](CCC(N)=O)NC(=O)CCNC(=O)C[C@H](C(N)=O)NC(=O)[C@@H](CCCCN)NC(=O)[C@@H](Cc2c[nH]c3ccccc23)NC1=O) | 88% | –
[βAla][dQ][dI][dW][dK][dQ][dK][dP][dD][dL][dD]-NH2 (lactam N-11; SMILES CC[C@@H](C)[C@H]1NC(=O)[C@@H](CCC(N)=O)NC(=O)CCNC(=O)C[C@H](C(N)=O)NC(=O)[C@@H](CC(C)C)NC(=O)[C@@H](CC(=O)O)NC(=O)[C@H]2CCCN2C(=O)[C@@H](CCCCN)NC(=O)[C@@H](CCC(N)=O)NC(=O)[C@@H](CCCCN)NC(=O)[C@@H](Cc2c[nH]c3ccccc23)NC1=O) | 96% | –
c(Adipoyl-Lys-Trp-Ile-Gln-Dab)-NH2 | 99.9% | –
c(Adipoyl-Lys-Trp-Ile-Gln-Dap)-NH2 | 99.9% | –
c(Adipoyl-Lys-Trp-Ile-Gln-Lys)-NH2 | 99.9% | –
c(Adipoyl-Lys-Trp-Ile-Gln-Orn)-NH2 | 99.9% | –
c(D-Cys-D-Gln-D-Ile-D-Trp-D-Lys-D-Gln-D-Lys-D-Pro-D-Asp(D-Ala-OH)-D-Leu-D-Cys)-NH2 | 99% | –
c(D-Cys-D-Gln-D-Ile-D-Trp-D-Lys-D-Gln-D-Lys-D-Pro-D-Asp-D-Leu-D-Cys)-D-Lys(N/-octanoyl)-OH | 99% | –
c(Diglycolyl-Lys-Trp-Ile-Gln-Lys)-NH2 | 99.9% | –
{Benzoyl(4-Ph)}-CKWIQC-NH2 (disulfide 1-6; SMILES CC[C@H](C)[C@@H]1NC(=O)[C@H](Cc2c[nH]c3ccccc23)NC(=O)[C@H](CCCCN)NC(=O)[C@@H](NC(=O)c2ccc(-c3ccccc3)cc2)CSSC[C@@H](C(N)=O)NC(=O)[C@H](CCC(N)=O)NC1=O) | 95% | –
{CH2CO}-KWIQC-NH2 (thioether N-5; SMILES CC[C@H](C)[C@@H]1NC(=O)[C@H](Cc2c[nH]c3ccccc23)NC(=O)[C@H](CCCCN)NC(=O)CSC[C@@H](C(N)=O)NC(=O)[C@H](CCC(N)=O)NC1=O) | 97% | –
{CH2CO}-KWIQ[hCys]-NH2 (thioether N-5; SMILES CC[C@H](C)[C@@H]1NC(=O)[C@H](Cc2c[nH]c3ccccc23)NC(=O)[C@H](CCCCN)NC(=O)CSCC[C@@H](C(N)=O)NC(=O)[C@H](CCC(N)=O)NC1=O) | – | final HPLC purity (scale 0.117 mmol): 95%; crude mass (scale 0.117 mmol): ˜95 mg; isolated mass (scale 0.117 mmol): 25.8 mg; isolated yield (scale 0.117 mmol): 30% yield
{Hydrocinnamoyl(4-Me)}-CKWIQC-NH2 (disulfide 1-6; SMILES CC[C@H](C)[C@@H]1NC(=O)[C@H](Cc2c[nH]c3ccccc23)NC(=O)[C@H](CCCCN)NC(=O)[C@@H](NC(=O)CCc2ccc(C)cc2)CSSC[C@@H](C(N)=O)NC(=O)[C@H](CCC(N)=O)NC1=O) | 99.9% | –
{Phenylacetyl(4-Me)}-CKWIQC-NH2 (disulfide 1-6; SMILES CC[C@H](C)[C@@H]1NC(=O)[C@H](Cc2c[nH]c3ccccc23)NC(=O)[C@H](CCCCN)NC(=O)[C@@H](NC(=O)Cc2ccc(C)cc2)CSSC[C@@H](C(N)=O)NC(=O)[C@H](CCC(N)=O)NC1=O) | 95% | –

Source: patent publication US20110038885A1 (priority 2007, published 2011)
